Values of other authors in patent US20080085892A1, “Liquid dosage form of acetaminophen” (priority 2006, published 2008).

solubility in water (in words): slightly soluble
Compound: CC(=O)Nc1ccc(O)cc1 [Acetaminophen, N-(4-hydroxyphenyl)acetamide]
